Molecules are shown by their SMILES. This is one part of the list. Many values rest on one well or one pass, so single values are uncertain.

This experiment relates to Saccharomyces cerevisiae BY4743. Nature of the experiment: growth (OD600) with compound + IPBC relative to untreated control; higher = less growth inhibition. The note with it: compound concentration: 133 uM; IPBC concentration: 0.5 ug/ml; 20 h. As to the method: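 NMCCC compounds (133 uM) combined with IPBC (0.5 ug/ml) against Saccharomyces cerevisiae BY4743 in YPD, 96-well plates. Growth was read as OD600 at 20 h and expressed as % of the untreated control. Single pass.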
As for `CCOc1ccccc1NC(=O)NCc1c(C)nn(CC)c1C` + CCCCNC(=O)OCC#CI [3-iodo-2-propynyl butylcarbamate (IPBC)], the growth came to 88.9%.

As to `CCOC(=O)c1cc(Oc2ccc(C#N)cn2)cc(C(=O)OCC)c1` + CCCCNC(=O)OCC#CI [3-iodo-2-propynyl butylcarbamate (IPBC)], the growth is 84.3%.

Turning to `N#Cc1ccsc1NC(=O)CCNC1(c2ccc(Br)cc2)CCCC1` + CCCCNC(=O)OCC#CI [3-iodo-2-propynyl butylcarbamate (IPBC)], the growth was 94.7%.

As for `CCN(CC)C1=CC2=C(C=C1F)C(=O)\C(=C/N2C)[S](=O)(=O)C3=CC=C(C)C=C3` + CCCCNC(=O)OCC#CI [3-iodo-2-propynyl butylcarbamate (IPBC)], the growth is 97.1%.

On to `Cn1ccc(NC(=O)CCCc2nc(O)c3ccccc3n2)n1` + CCCCNC(=O)OCC#CI [3-iodo-2-propynyl butylcarbamate (IPBC)], for which the growth stood at 107%.

Take `CCc1ccc(NS(=O)(=O)c2ccc(C(=O)N(C)C)s2)cc1` + CCCCNC(=O)OCC#CI [3-iodo-2-propynyl butylcarbamate (IPBC)]: the growth worked out at 84.6%.

For `CCn1c(NC(=O)c2cc(Cl)c(OC)c(OC)c2)nc2ccccc21` + CCCCNC(=O)OCC#CI [3-iodo-2-propynyl butylcarbamate (IPBC)], the growth stood at 102%.

As for `CC(C)(C)OC(=O)NC1CCN(C(=O)Nc2ccc(Cl)c(C(F)(F)F)c2)CC1` + CCCCNC(=O)OCC#CI [3-iodo-2-propynyl butylcarbamate (IPBC)], the growth came out at 102%.

As for `CCCNC(=O)c1nn(CC)cc1NC=O` + CCCCNC(=O)OCC#CI [3-iodo-2-propynyl butylcarbamate (IPBC)], the growth is 88.4%.

Take `CCN(CC)S(=O)(=O)c1cc(C(=O)NCc2cn3cc(Cl)ccc3n2)ccc1Cl` + CCCCNC(=O)OCC#CI [3-iodo-2-propynyl butylcarbamate (IPBC)]: the growth was 110%.

`CCOC(=O)C1CCN(C(=O)c2ccc(OC)c(S(=O)(=O)NC)c2)CC1` + CCCCNC(=O)OCC#CI [3-iodo-2-propynyl butylcarbamate (IPBC)]: the growth was 95.4%.

`CC(C)(C)c1ccc(C(=O)NCC(=O)OCC(=O)NCc2ccco2)cc1` + CCCCNC(=O)OCC#CI [3-iodo-2-propynyl butylcarbamate (IPBC)]: the growth came out at 101%.

With `CCCn1c(O)nnc1SCc1cc(C(=O)OC)c(C)o1` + CCCCNC(=O)OCC#CI [3-iodo-2-propynyl butylcarbamate (IPBC)], the growth is 106%.

In the case of `Cc1ccc(S(C)(=O)=O)cc1C(=O)Nc1nc2cc(Cl)ccc2n1C` + CCCCNC(=O)OCC#CI [3-iodo-2-propynyl butylcarbamate (IPBC)], the growth was determined as 88.5%.

Regarding `CC(C)C1O\C(=N/C1=O)NC(=O)NC(C)(C)C2=CC=CC(=C2)C(C)=C` (centres undefined) + CCCCNC(=O)OCC#CI [3-iodo-2-propynyl butylcarbamate (IPBC)], the growth came out at 98.9%.

`FC(F)(F)CNC(=O)C1=CC=CC=C1NC(=O)CN2C(=O)\C=C/N(CC3=CC=CC=C3)C2=O` + CCCCNC(=O)OCC#CI [3-iodo-2-propynyl butylcarbamate (IPBC)]: the growth came to 96.4%.

As for `CCN(CCNC(=O)CN1\N=C/C2=C(SC=C2)C1=O)C3=CC=CC=C3` + CCCCNC(=O)OCC#CI [3-iodo-2-propynyl butylcarbamate (IPBC)], the growth amounted to 88.1%.

On to `O=C(Nc1ccc(Cl)c(C(F)(F)F)c1)c1cc2ncccn2n1` + CCCCNC(=O)OCC#CI [3-iodo-2-propynyl butylcarbamate (IPBC)], for which the growth is 94.2%.

Turning to `CCOc1ccc(S(=O)(=O)N2CCOCC2)cc1NC(=O)CCc1ccsc1` + CCCCNC(=O)OCC#CI [3-iodo-2-propynyl butylcarbamate (IPBC)], the growth amounted to 101%.

As to `COC(=O)C1C\C(=N/O1)C2=C[N](C)N=C2C` (centres undefined) + CCCCNC(=O)OCC#CI [3-iodo-2-propynyl butylcarbamate (IPBC)], the growth is 101%.

`CC(C)NC(=O)CNC(=O)CSc1nnc(NCc2ccc(F)cc2)s1` + CCCCNC(=O)OCC#CI [3-iodo-2-propynyl butylcarbamate (IPBC)]: the growth was 107%.

Turning to `CC(C)CN1\C(=N/[S](=O)(=O)C2=CC(=CC=C12)C(=O)N(C)CC3=CC=CC=C3)C` + CCCCNC(=O)OCC#CI [3-iodo-2-propynyl butylcarbamate (IPBC)], the growth stood at 92.9%.

On to `CC(=O)c1c(C)[nH]c(C(=O)OCC(=O)NCc2ccccc2Cl)c1C` + CCCCNC(=O)OCC#CI [3-iodo-2-propynyl butylcarbamate (IPBC)], for which the growth came out at 91.4%.

As to `Cn1cccc1C(=O)NC(=O)COc1ccccc1C#N` + CCCCNC(=O)OCC#CI [3-iodo-2-propynyl butylcarbamate (IPBC)], the growth was 95.1%.

Consider `Cn1cccc1Cc1nnc(SCC(N)=O)n1-c1ccc(Cl)cc1` + CCCCNC(=O)OCC#CI [3-iodo-2-propynyl butylcarbamate (IPBC)], for which the growth is 97.8%.

`COC(=O)C(OC(=O)c1ccc(Cn2cncn2)cc1)c1ccccc1` (centres undefined) + CCCCNC(=O)OCC#CI [3-iodo-2-propynyl butylcarbamate (IPBC)]: the growth amounted to 102%.

Turning to `CCC(=O)Nc1sc(CC#N)nc1-c1ccc(C)cc1` + CCCCNC(=O)OCC#CI [3-iodo-2-propynyl butylcarbamate (IPBC)], the growth stood at 92.8%.

For `COC(=O)c1cc(CNC(=O)CSCc2c(C)noc2C)ccc1OC` + CCCCNC(=O)OCC#CI [3-iodo-2-propynyl butylcarbamate (IPBC)], the growth stood at 97.2%.

For `COC1=CC=C(N[S](=O)(=O)C2=CC=C3\N=C/N[S](=O)(=O)C3=C2)C=C1` + CCCCNC(=O)OCC#CI [3-iodo-2-propynyl butylcarbamate (IPBC)], the growth stood at 101%.

With `O=C(CN1CCN(c2csc(Cl)n2)CC1)Nc1ccc(Cl)c(C(F)(F)F)c1` + CCCCNC(=O)OCC#CI [3-iodo-2-propynyl butylcarbamate (IPBC)], the growth was 101%.

For `CCOc1ccc(NC(=O)c2cc(CC)c(C)s2)cc1OC` + CCCCNC(=O)OCC#CI [3-iodo-2-propynyl butylcarbamate (IPBC)], the growth came out at 91%.

On to `CCc1c(C)sc(NS(=O)(=O)c2ccc(NC(C)=O)cc2)c1C#N` + CCCCNC(=O)OCC#CI [3-iodo-2-propynyl butylcarbamate (IPBC)], for which the growth worked out at 102%.

Turning to `CN1\C=C(/C(=O)N(C)C1=O)[S](=O)(=O)NC2(C)CC[S](=O)(=O)C2` (centres undefined) + CCCCNC(=O)OCC#CI [3-iodo-2-propynyl butylcarbamate (IPBC)], the growth was determined as 113%.

`CNS(=O)(=O)Cc1ccc(CNC(=O)Nc2ccccc2F)cc1` + CCCCNC(=O)OCC#CI [3-iodo-2-propynyl butylcarbamate (IPBC)]: the growth was found to be 84.1%.

`COC(=O)c1cc(NC(=O)c2cc(S(N)(=O)=O)ccc2N2CCOCC2)ccc1F` + CCCCNC(=O)OCC#CI [3-iodo-2-propynyl butylcarbamate (IPBC)]: the growth came to 84.6%.

As to `CCCNC(=O)COC1=CC=C2C(=O)\C(=C(\C)OC2=C1)C3=CC=C(OC)C(=C3)OC` + CCCCNC(=O)OCC#CI [3-iodo-2-propynyl butylcarbamate (IPBC)], the growth was 105%.

As for `CCn1c(SCc2cc(C)on2)nnc1C1CC1` + CCCCNC(=O)OCC#CI [3-iodo-2-propynyl butylcarbamate (IPBC)], the growth is 95.8%.

As to `FC(F)(F)c1cnc(SCc2noc(-c3ccsc3)n2)c(Cl)c1` + CCCCNC(=O)OCC#CI [3-iodo-2-propynyl butylcarbamate (IPBC)], the growth is 95.5%.

With `CCN(CC(=O)Nc1ccccc1C(F)(F)F)C(=O)CSCC(=O)Nc1cc(C)on1` + CCCCNC(=O)OCC#CI [3-iodo-2-propynyl butylcarbamate (IPBC)], the growth was found to be 93.2%.

Values taken from the supplement of paper PMC8007513.
